Measured data: PubChem BioAssay AID1259308 (NCATS, 2017)
The deposit covers about 59,000 reagents; this is an unselected part. About 1,510 of them (2.6%) were called active. 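Calls use total luciferase alone and ignore viability, so some active siRNAs may act by altering cell number.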 Unmarked entries are inactive. Reagents against one gene are numbered here. Not all columns of the deposit are shown.

- Assay: 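Candidate targets for better recombinant protein yield in mammalian cells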 (primary screen)
- Cell system: human HEK293 embryonic kidney cells stably expressing firefly luciferase (HEK-CMV-Luc2-Hygro)
- Knock-down reagent: single siRNA against human genes, 0.8 pmol siRNA per well
- Duration: 72 h
- Measured: 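Luciferase light (ONE-Glo) measured on one replicate plate set and viability (CellTiter-Glo) on the other, scaled to a negative control siRNA, with robust z-scores and luciferase per cell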
- Scale: total luciferase, z-score: higher = more reporter protein produced
- Call rule: 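An siRNA counts as active if its total luciferase robust z-score exceeds 3; genes with two or more such siRNAs out of three were retested with fresh siRNAs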
- Meaning of the calls: active = raised luciferase; inactive = no rise

total luciferase, z-score, by gene and reagent
KATNIP (katanin interacting protein): #1 0.829; #2 -0.15; #3 -0.93
BARHL1 (BarH like homeobox 1): #1 1.9; #2 0.68; #3 -0.211
CTBP2 (C-terminal binding protein 2): #1 0.43; #2 -1.29; #3 0.0565
LHFPL1 (LHFPL tetraspan subfamily member 1): #1 1.94; #2 -0.312; #3 0.296
LRR1 (leucine rich repeat protein 1): #1 -0.122; #2 -0.424; #3 -0.422
OR52A1 (olfactory receptor family 52 subfamily A member 1): #1 0.323; #2 -0.127; #3 0.727
TGM1 (transglutaminase 1): #1 -1.57; #2 0.388; #3 2.24
EEF1B2 (eukaryotic translation elongation factor 1 beta 2): #1 3.75 (active); #2 3.48 (active); #3 1.08
ABI1 (abl interactor 1): #1 2.11; #2 0.664; #3 -1.17
COA6 (cytochrome c oxidase assembly factor 6): #1 -0.39; #2 1.67; #3 0.423
ARVCF (ARVCF delta catenin family member): #1 -0.451; #2 -0.187; #3 0.917
ARL11 (ARF like GTPase 11): #1 -1.67; #2 -0.232; #3 0.524

Look-ups from above:
LRR1 (leucine rich repeat protein 1) #3, total luciferase, z-score: -0.422
KATNIP (katanin interacting protein) #3, total luciferase, z-score → -0.93
COA6 (cytochrome c oxidase assembly factor 6) #1, total luciferase, z-score: -0.39
Value of TGM1 (transglutaminase 1) #2 under “total luciferase, z-score”: 0.388

The results go on.
total luciferase, z-score, by gene and reagent
PDIA4 (protein disulfide isomerase family A member 4): #1 0.0163; #2 -0.106; #3 1.58
ZNF581 (zinc finger protein 581): #1 0.00881; #2 0.0135; #3 0.0588
FANCL (FA complementation group L): #1 -0.781; #2 0.772; #3 -0.764
TATDN3 (TatD DNase domain containing 3): #1 1.4; #2 -0.213; #3 -1.09
GJD4 (gap junction protein delta 4): #1 -2.33; #2 0.55; #3 -0.689
RAB5C (RAB5C, member RAS oncogene family): #1 0.536; #2 1.01; #3 -1.07
ACSBG1 (acyl-CoA synthetase bubblegum family member 1): #1 0.0658; #2 0.361; #3 -0.353
HESX1 (HESX homeobox 1): #1 0.4; #2 0.196; #3 -1.49
HDAC6 (histone deacetylase 6): #1 -1.12; #2 -0.204; #3 0.119
VSTM5 (V-set and transmembrane domain containing 5): #1 0.0949; #2 0.773; #3 0.419
CDCA2 (cell division cycle associated 2): #1 -1.05; #2 0.628; #3 0.413
FOXO3 (forkhead box O3): #1 -0.273; #2 -1.33; #3 -2.13
SMARCAD1 (SNF2 related chromatin remodeling ATPase with DExD box 1): #1 0.786; #2 -1.48; #3 0.886
